Data reported in publication doi:10.1101/2020.12.31.424961.
Results are given in words; binding and its absence hold for the method and conditions named. In cells and extracts the contact can be indirect. These calls come from enrichment with a bait or labelling near it, and not all partners need be listed.

Target: SARS-CoV-2 ORF3a, SFB- or BioID2-tagged (SARS-CoV-2), P0DTC3
Test: affinity purification with mass spectrometry + proximity labelling
Conditions: remark: other sources report otherwise

Binder | binding
VPS39, Q96JC1 1-886 (protein) MHDAFEPVPILEKLPLQIDCLAAWEEWLLVGTKQGHLLLYRIRKDVVPADVASPESGSCNRFEVTLEKSNKNFSKKIQQIHVVSQFKILVSLLENNIYVHDLLTFQQITTVSKAKGASLFTCDLQHTETGEEVLRMCVAVKKKLQLYFWKDREFHELQGDFSVPDVPKSMAWCENSICVGFKRDYYLIRVDGKGSIKELFPTGKQLEPLVAPLADGKVAVGQDDLTVVLNEEGICTQKCALNWTDIPVAMEHQPPYIIAVLPRYVEIRTFEPRLLVQSIELQRPRFITSGGSNIIYVASNHFVWRLIPVPMATQIQQLLQDKQFELALQLAEMKDDSDSEKQQQIHHIKNLYAFNLFCQKRFDESMQVFAKLGTDPTHVMGLYPDLLPTDYRKQLQYPNPLPVLSGAELEKAHLALIDYLTQKRSQLVKKLNDSDHQSSTSPLMEGTPTIKSKKKLLQIIDTTLLKCYLHTNVALVAPLLRLENNHCHIEESEHVLKKAHKYSELIILYEKKGLHEKALQVLVDQSKKANSPLKGHERTVQYLQHLGTENLHLIFSYSVWVLRDFPEDGLKIFTEDLPEVESLPRDRVLGFLIENFKGLAIPYLEHIIHVWEETGSRFHNCLIQLYCEKVQGLMKEYLLSFPAGKTPVPAGEEEGELGEYRQKLLMFLEISSYYDPGRLICDFPFDGLLEERALLLGRMGKHEQALFIYVHILKDTRMAEEYCHKHYDRNKDGNKDVYLSLLRMYLSPPSIHCLGPIKLELLEPKANLQAALQVLELHHSKLDTTKALNLLPANTQINDIRIFLEKVLEENAQKKRFNQVLKNLLHAEFLRVQEERILHQQVKCIITEEKVCMVCKKKIGNSAFARYPNGVVVHYFCSKEVNPADT | binds
VPS11, Q9H270 1-941 (protein) MAAYLQWRRFVFFDKELVKEPLSNDGAAPGATPASGSAASKFLCLPPGITVCDSGRGSLVFGDMEGQIWFLPRSLQLTGFQAYKLRVTHLYQLKQHNILASVGEDEEGINPLVKIWNLEKRDGGNPLCTRIFPAIPGTEPTVVSCLTVHENLNFMAIGFTDGSVTLNKGDITRDRHSKTQILHKGNYPVTGLAFRQAGKTTHLFVVTTENVQSYIVSGKDYPRVELDTHGCGLRCSALSDPSQDLQFIVAGDECVYLYQPDERGPCFAFEGHKLIAHWFRGYLIIVSRDRKVSPKSEFTSRDSQSSDKQILNIYDLCNKFIAYSTVFEDVVDVLAEWGSLYVLTRDGRVHALQEKDTQTKLEMLFKKNLFEMAINLAKSQHLDSDGLAQIFMQYGDHLYSKGNHDGAVQQYIRTIGKLEPSYVIRKFLDAQRIHNLTAYLQTLHRQSLANADHTTLLLNCYTKLKDSSKLEEFIKKKSESEVHFDVETAIKVLRQAGYYSHALYLAENHAHHEWYLKIQLEDIKNYQEALRYIGKLPFEQAESNMKRYGKILMHHIPEQTTQLLKGLCTDYRPSLEGRSDREAPGCRANSEEFIPIFANNPRELKAFLEHMSEVQPDSPQGIYDTLLELRLQNWAHEKDPQVKEKLHAEAISLLKSGRFCDVFDKALVLCQMHDFQDGVLYLYEQGKLFQQIMHYHMQHEQYRQVISVCERHGEQDPSLWEQALSYFARKEEDCKEYVAAVLKHIENKNLMPPLLVVQTLAHNSTATLSVIRDYLVQKLQKQSQQIAQDELRVRRYREETTRIRQEIQELKASPKIFQKTKCSICNSALELPSVHFLCGHSFHQHCFESYSESDADCPTCLPENRKVMDMIRAQEQKRDLHDQFQHQLKCSNDSFSVIADYFGRGVFNKLTLLTDPPTARLTSSLEAGLQRDLLMHSRRGT | binds
VPS16, Q9H269 1-839 (protein) MDCYTANWNPLGDSAFYRKYELYSMDWDLKEELRDCLVAAAPYGGPIALLRNPWRKEKAASVRPVLDIYSASGMPLASLLWKSGPVVSLGWSAEEELLCVQEDGAVLVYGLHGDFRRHFSMGNEVLQNRVLDARIFHTEFGSGVAILTGAHRFTLSANVGDLKLRRMPEVPGLQSAPSCWTVLCQDRVAHILLAVGPDLYLLDHAACSAVTPPGLAPGVSSFLQMAVSFTYRHLALFTDTGYIWMGTASLKEKLCEFNCNIRAPPKQMVWCSRPRSKERAVVVAWERRLMVVGDAPESIQFVLDEDSYLVPELDGVRIFSRSTHEFLHEVPAASEEIFKIASMAPGALLLEAQKEYEKESQKADEYLREIQELGQLTQAVQQCIEAAGHEHQPDMQKSLLRAASFGKCFLDRFPPDSFVHMCQDLRVLNAVRDYHIGIPLTYSQYKQLTIQVLLDRLVLRRLYPLAIQICEYLRLPEVQGVSRILAHWACYKVQQKDVSDEDVARAINQKLGDTPGVSYSDIAARAYGCGRTELAIKLLEYEPRSGEQVPLLLKMKRSKLALSKAIESGDTDLVFTVLLHLKNELNRGDFFMTLRNQPMALSLYRQFCKHQELETLKDLYNQDDNHQELGSFHIRASYAAEERIEGRVAALQTAADAFYKAKNEFAAKATEDQMRLLRLQRRLEDELGGQFLDLSLHDTVTTLILGGHNKRAEQLARDFRIPDKRLWWLKLTALADLEDWEELEKFSKSKKSPIGYLPFVEICMKQHNKYEAKKYASRVGPEQKVKALLLVGDVAQAADVAIEHRNEAELSLVLSHCTGATDGATADKIQRARAQAQKK | binds
VPS18, Q9P253 1-973 (protein) MASILDEYENSLSRSAVLQPGCPSVGIPHSGYVNAQLEKEVPIFTKQRIDFTPSERITSLVVSSNQLCMSLGKDTLLRIDLGKANEPNHVELGRKDDAKVHKMFLDHTGSHLLIALSSTEVLYVNRNGQKVRPLARWKGQLVESVGWNKALGTESSTGPILVGTAQGHIFEAELSASEGGLFGPAPDLYFRPLYVLNEEGGPAPVCSLEAERGPDGRSFVIATTRQRLFQFIGRAAEGAEAQGFSGLFAAYTDHPPPFREFPSNLGYSELAFYTPKLRSAPRAFAWMMGDGVLYGALDCGRPDSLLSEERVWEYPEGVGPGASPPLAIVLTQFHFLLLLADRVEAVCTLTGQVVLRDHFLEKFGPLKHMVKDSSTGQLWAYTERAVFRYHVQREARDVWRTYLDMNRFDLAKEYCRERPDCLDTVLAREADFCFRQRRYLESARCYALTQSYFEEIALKFLEARQEEALAEFLQRKLASLKPAERTQATLLTTWLTELYLSRLGALQGDPEALTLYRETKECFRTFLSSPRHKEWLFASRASIHELLASHGDTEHMVYFAVIMQDYERVVAYHCQHEAYEEALAVLARHRDPQLFYKFSPILIRHIPRQLVDAWIEMGSRLDARQLIPALVNYSQGGEVQQVSQAIRYMEFCVNVLGETEQAIHNYLLSLYARGRPDSLLAYLEQAGASPHRVHYDLKYALRLCAEHGHHRACVHVYKVLELYEEAVDLALQVDVDLAKQCADLPEEDEELRKKLWLKIARHVVQEEEDVQTAMACLASCPLLKIEDVLPFFPDFVTIDHFKEAICSSLKAYNHHIQELQREMEEATASAQRIRRDLQELRGRYGTVEPQDKCATCDFPLLNRPFYLFLCGHMFHADCLLQAVRPGLPAYKQARLEELQRKLGAAPPPAKGSARAKEAEGGAATAGPSREQLKADLDELVAAECVYCGELMIRSIDRPFIDPQRYEEEQLSWL | binds
VPS41, P49754 1-854 (protein) MAEAEEQETGSLEESTDESEEEESEEEPKLKYERLSNGVTEILQKDAASCMTVHDKFLALGTHYGKVYLLDVQGNITQKFDVSPVKINQISLDESGEHMGVCSEDGKVQVFGLYSGEEFHETFDCPIKIIAVHPHFVRSSCKQFVTGGKKLLLFERSWMNRWKSAVLHEGEGNIRSVKWRGHLIAWANNMGVKIFDIISKQRITNVPRDDISLRPDMYPCSLCWKDNVTLIIGWGTSVKVCSVKERHASEMRDLPSRYVEIVSQFETEFYISGLAPLCDQLVVLSYVKEISEKTEREYCARPRLDIIQPLSETCEEISSDALTVRGFQENECRDYHLEYSEGESLFYIVSPRDVVVAKERDQDDHIDWLLEKKKYEEALMAAEISQKNIKRHKILDIGLAYINHLVERGDYDIAARKCQKILGKNAALWEYEVYKFKEIGQLKAISPYLPRGDPVLKPLIYEMILHEFLESDYEGFATLIREWPGDLYNNSVIVQAVRDHLKKDSQNKTLLKTLAELYTYDKNYGNALEIYLTLRHKDVFQLIHKHNLFSSIKDKIVLLMDFDSEKAVDMLLDNEDKISIKKVVEELEDRPELQHVYLHKLFKRDHHKGQRYHEKQISLYAEYDRPNLLPFLRDSTHCPLEKALEICQQRNFVEETVYLLSRMGNSRSALKMIMEELHDVDKAIEFAKEQDDGELWEDLILYSIDKPPFITGLLNNIGTHVDPILLIHRIKEGMEIPNLRDSLVKILQDYNLQILLREGCKKILVADSLSLLKKMHRTQMKGVLVDEENICESCLSPILPSDAAKPFSVVVFHCRHMFHKECLPMPSMNSAAQFCNICSAKNRGPGSAILEMKK | binds
